# Test results published in PubChem BioAssay AID2417 (National Center for Advancing Translational Sciences (NCATS), 2010).
# About 4,300 (3.1%) of roughly 140,000 compounds were called active. Inconclusive means that the source gave no clear call. Such entries were picked first, then a sample of the others.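 Rule for the calls: active = readout at or below -70, meaning at least 70% loss of cells showing the perinucleolar compartment, a nuclear body marking cancer cells; inconclusive = readout between -30 and a set limit; inactive = the rest.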
# Experiment: High Content Assay for Compounds that inhibit the Assembly of the Perinucleolar Compartment;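 note: plate controls were DMSO wells for no effect and camptothecin positive control wells for full effect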
# Settings: PC3M PTB-GFP, PNC prevalence imaging, 16 h; at 10 µM; stronger effect = lower value
# Procedure, shortened: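 Read-out is percentage of cells bearing a perinucleolar compartment, from automated 20x imaging of fixed, Hoechst-stained PC3M PTB-GFP cells. Cells were seeded 4 h, then exposed 16 h to compound (23 nl of library stock) in duplicate plates.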
row,Compound,"activity change (PNC), negative = inhibition"
1,O=C(COC(=O)c1ccc(CO)cc1)NCc1cccs1,inactive: 16.6%
2,OCCCNc1nc(-c2ccc(Cl)cc2)nnc1-c1ccc(Br)cc1,inactive: 2.51%
3,CCOC(=O)N1CCC(NC(=O)CCc2c(C)nc3ncnn3c2C)CC1,inactive: 92.9%
4,O=C(CSc1nc(Nc2ccccc2)nc(N2CCOCC2)n1)Nc1ccccc1Cl,inactive: 43.2%
5,N#C/C(=C(/O)COC(=O)Cc1c[nH]c2ccccc12)c1nc2ccccc2[nH]1,inconclusive: -59.1%
6,CC1=C(C)C(=O)N(c2ccccn2)C1=O,inconclusive: -50.8%
7,Cc1ccc(NC2=CC(=O)CC(c3ccccc3)C2)cc1 (stereo not drawn),inconclusive: -39.2%
8,O=C(N/N=C/C=C/c1ccccc1[N+](=O)[O-])c1cc(-c2cccnc2)nc2ccccc12,active: -83.5%
9,O=C(NCC1CCCO1)c1nn2c(c1Cl)NC(c1ccc(F)cc1)CC2C(F)(F)F (stereo not drawn),inactive: 45.4%
10,CCOC(=O)c1ccccc1NC(=O)c1cc(S(=O)(=O)N2CCOCC2)ccc1F,inactive: 16.8%
11,COC(=O)c1ccc(N2CCN(S(=O)(=O)c3ccc(Br)cc3)CC2)c([N+](=O)[O-])c1,inactive: -25.1%
12,CCN(CC)CCN1C(=O)C(=O)/C(=C(/O)c2ccc(F)cc2)C1c1cccnc1 (stereo not drawn),inconclusive: -62.6%
13,CCNC(=O)COC(=O)CNC(=O)c1cc(Cl)cc([N+](=O)[O-])c1,inconclusive: -36.6%
14,N=c1scc(-c2ccccc2)n1/N=C/c1ccco1,inactive: 42.8%
15,CCN(Cc1ccccc1)C(=O)c1c[nH]c2ccc(S(=O)(=O)N(C)CCC#N)cc2c1=O,inconclusive: -52.5%
16,N#CCCN1CCN(Cc2cc(-c3ccccc3)ccc2O)CC1,inconclusive: -44.7%
17,COc1ccccc1N1CCN(c2nc(-c3ccccc3)cc(C(F)(F)F)n2)CC1,inactive: -11.8%
18,COc1ccc(-n2c(C)nc3cc(C(=O)O)ccc32)cc1,inconclusive: -38.7%
19,COC(=O)c1[nH]c2ccccc2c1NC(=O)/C=C/c1ccc2c(c1)OCO2,inconclusive: -59.7%
20,CCn1c(SCC(=O)NC2CCCCC2)nc2c(c1=O)SC(C)C2 (stereo not drawn),inactive: 58.5%

row,Compound,"activity change (PNC), negative = inhibition"
1,Cc1cc(C)nc(/N=C(\N)Nc2ccc([N+](=O)[O-])cc2)n1,inconclusive: -42.8%
2,CCn1c(C)nc2cc(S(=O)(=O)N3CCCC3)ccc21,inconclusive: -47.9%
3,CN(C)c1nc(NS(=O)(=O)c2ccc(Cl)cc2)nc(N(C)C)n1,active: -121%
4,Cc1ccc(N2CCN(C(=O)CN3C(=O)c4ccccc4C3=O)CC2)cc1,inconclusive: -38.7%
5,c1ccc(C(c2ccccc2)N2CCN(Cc3nnnn3C3CCCC3)CC2)cc1,active: -82%
6,Cc1cc(C)n(-c2nc3c(c(=O)[nH]c(=O)n3C)n2Cc2ccccc2)n1,inconclusive: -35.5%
7,O=[N+]([O-])c1cc(C(F)(F)F)ccc1NCCc1c[nH]c2ccccc12,inconclusive: -55.1%
8,CCCc1nnc(NC(=O)C(C)N2C(=O)C3C4C=CC(C4)C3C2=O)s1 (stereo not drawn),inconclusive: -54.5%
9,CCCCN1C(=O)Nc2ccccc2S1=O (stereo not drawn),active: -87.4%
10,COC(=O)c1ccccc1NC(=O)COC(=O)CSCC(=O)N1CCOCC1,inconclusive: -30%
11,CN1CCN(S(=O)(=O)c2cc([N+](=O)[O-])ccc2N2CCCCCC2)CC1,inactive: 17.1%
12,CN(C1CCCCC1)S(=O)(=O)c1ccc(NC(=O)Cn2nc(-c3ccc(F)cc3)ccc2=O)cc1,inconclusive: -30.9%
13,COc1cc2c(cc1OC)C1=NC(=O)CN1C(SCc1ccccc1C)=N2,inactive: 12.1%
14,CCCCCOC(=O)Nc1nnc(CCC)s1,inconclusive: -47.1%
15,O=C(NCc1ccccc1)C(c1ccccc1)N(Cc1ccc2c(c1)OCO2)C(=O)Cc1cccs1 (stereo not drawn),active: -108%
16,Cc1ccc(Cn2nnc3c(=O)[nH]c(C4CCCN(C(=O)Nc5ccc(F)cc5F)C4)nc32)cc1 (stereo not drawn),inactive: 27.2%
17,CCCc1cc(=O)[nH]c(SCC(N)=O)n1,inconclusive: -65.5%
18,COC(=O)CSc1nnc(CNc2ccc(F)cc2)o1,inactive: 9.01%
19,O=C(CNCc1ccc(F)cc1)Nc1ccccc1-c1ccccc1,inactive: 23.9%
20,Clc1ccc(-c2nnc(C3CCCCC3)o2)cc1,inconclusive: -36.2%

row,Compound,"activity change (PNC), negative = inhibition"
1,O=C(CCN1C(=O)c2ccccc2C1=O)Nc1ccc(-c2nc3ccccc3s2)cc1,inconclusive: -45.7%
2,c1ccc2c(CCNc3ncnc4nc[nH]c34)c[nH]c2c1,inconclusive: -32.4%
3,c1ccc(CC2CCN(C(c3cccs3)c3nnnn3C3CCCC3)CC2)cc1 (stereo not drawn),inactive: 37.4%
4,COc1cccc(-c2nc(CS(=O)CC(=O)O)c(C)o2)c1 (stereo not drawn),inactive: 12.7%
5,COC(=O)c1ccc(SC)cn1,inconclusive: -40.1%
6,COc1cc(NC(=O)c2ccco2)c(OC)cc1NC(=O)CCC(=O)Nc1cc(C)cc(C)c1,inconclusive: -58%
7,CC(=O)N1C(C(=O)O)CSC1c1ccc(C)cc1 (stereo not drawn),inconclusive: -30.5%
8,Cc1ccc(-c2nc(C#N)c(NCc3ccco3)o2)cc1,inconclusive: -69.2%
9,CCCCS(=O)(=O)/C=C\C=C/S(=O)(=O)CCCC,inconclusive: -45%
10,CCO/N=C(/C)c1c(O)c(C)c(-c2ccccc2)n(-c2ccccc2)c1=O,inactive: 16.1%
11,N#C/C(=C/c1ccco1)c1nc2ccccc2s1,inconclusive: -34.8%
12,N#CCCN(C(=O)Nc1ccc(Cl)c(Cl)c1)c1ccccc1,inconclusive: -44%
13,CCCCOc1ccc(C(=O)N2CC(C)OC(C)C2)cc1 (stereo not drawn),inconclusive: -41.5%
14,Cc1oc2ccc(O)cc2c1C(=O)OC(C)C,inconclusive: -58.9%
15,CCCCCC(=O)NC(=S)Nc1ccc(NC(=O)c2ccco2)cc1,inactive: -29.3%
16,CC(CCc1ccccc1)NC(=O)COC(=O)CC1CC2CCC1C2 (stereo not drawn),inconclusive: -43.5%
17,COc1ccc(CCNC(=O)C2CCN(S(=O)(=O)c3cc(OC)ccc3OC)CC2)cc1,active: -83.4%
18,CCCc1oc2c(c(=O)c1CC)C(=O)CC(C)(C)C2,inconclusive: -30.8%
